Measurements: PMC3228830, “Targeted Proteolysis of Plectin Isoform 1a Accounts for Hemidesmosome Dysfunction in Mice Mimicking the Dominant Skin Blistering Disease EBS-Ogna” (PLoS Genetics, 2011)
No constants are given. Whether binding was seen depends on the method and setting. Some binding calls cover weakened binding; strength is not graded here.

Amino acid sequences for entries named in this document (tags omitted).
UniProt P30427: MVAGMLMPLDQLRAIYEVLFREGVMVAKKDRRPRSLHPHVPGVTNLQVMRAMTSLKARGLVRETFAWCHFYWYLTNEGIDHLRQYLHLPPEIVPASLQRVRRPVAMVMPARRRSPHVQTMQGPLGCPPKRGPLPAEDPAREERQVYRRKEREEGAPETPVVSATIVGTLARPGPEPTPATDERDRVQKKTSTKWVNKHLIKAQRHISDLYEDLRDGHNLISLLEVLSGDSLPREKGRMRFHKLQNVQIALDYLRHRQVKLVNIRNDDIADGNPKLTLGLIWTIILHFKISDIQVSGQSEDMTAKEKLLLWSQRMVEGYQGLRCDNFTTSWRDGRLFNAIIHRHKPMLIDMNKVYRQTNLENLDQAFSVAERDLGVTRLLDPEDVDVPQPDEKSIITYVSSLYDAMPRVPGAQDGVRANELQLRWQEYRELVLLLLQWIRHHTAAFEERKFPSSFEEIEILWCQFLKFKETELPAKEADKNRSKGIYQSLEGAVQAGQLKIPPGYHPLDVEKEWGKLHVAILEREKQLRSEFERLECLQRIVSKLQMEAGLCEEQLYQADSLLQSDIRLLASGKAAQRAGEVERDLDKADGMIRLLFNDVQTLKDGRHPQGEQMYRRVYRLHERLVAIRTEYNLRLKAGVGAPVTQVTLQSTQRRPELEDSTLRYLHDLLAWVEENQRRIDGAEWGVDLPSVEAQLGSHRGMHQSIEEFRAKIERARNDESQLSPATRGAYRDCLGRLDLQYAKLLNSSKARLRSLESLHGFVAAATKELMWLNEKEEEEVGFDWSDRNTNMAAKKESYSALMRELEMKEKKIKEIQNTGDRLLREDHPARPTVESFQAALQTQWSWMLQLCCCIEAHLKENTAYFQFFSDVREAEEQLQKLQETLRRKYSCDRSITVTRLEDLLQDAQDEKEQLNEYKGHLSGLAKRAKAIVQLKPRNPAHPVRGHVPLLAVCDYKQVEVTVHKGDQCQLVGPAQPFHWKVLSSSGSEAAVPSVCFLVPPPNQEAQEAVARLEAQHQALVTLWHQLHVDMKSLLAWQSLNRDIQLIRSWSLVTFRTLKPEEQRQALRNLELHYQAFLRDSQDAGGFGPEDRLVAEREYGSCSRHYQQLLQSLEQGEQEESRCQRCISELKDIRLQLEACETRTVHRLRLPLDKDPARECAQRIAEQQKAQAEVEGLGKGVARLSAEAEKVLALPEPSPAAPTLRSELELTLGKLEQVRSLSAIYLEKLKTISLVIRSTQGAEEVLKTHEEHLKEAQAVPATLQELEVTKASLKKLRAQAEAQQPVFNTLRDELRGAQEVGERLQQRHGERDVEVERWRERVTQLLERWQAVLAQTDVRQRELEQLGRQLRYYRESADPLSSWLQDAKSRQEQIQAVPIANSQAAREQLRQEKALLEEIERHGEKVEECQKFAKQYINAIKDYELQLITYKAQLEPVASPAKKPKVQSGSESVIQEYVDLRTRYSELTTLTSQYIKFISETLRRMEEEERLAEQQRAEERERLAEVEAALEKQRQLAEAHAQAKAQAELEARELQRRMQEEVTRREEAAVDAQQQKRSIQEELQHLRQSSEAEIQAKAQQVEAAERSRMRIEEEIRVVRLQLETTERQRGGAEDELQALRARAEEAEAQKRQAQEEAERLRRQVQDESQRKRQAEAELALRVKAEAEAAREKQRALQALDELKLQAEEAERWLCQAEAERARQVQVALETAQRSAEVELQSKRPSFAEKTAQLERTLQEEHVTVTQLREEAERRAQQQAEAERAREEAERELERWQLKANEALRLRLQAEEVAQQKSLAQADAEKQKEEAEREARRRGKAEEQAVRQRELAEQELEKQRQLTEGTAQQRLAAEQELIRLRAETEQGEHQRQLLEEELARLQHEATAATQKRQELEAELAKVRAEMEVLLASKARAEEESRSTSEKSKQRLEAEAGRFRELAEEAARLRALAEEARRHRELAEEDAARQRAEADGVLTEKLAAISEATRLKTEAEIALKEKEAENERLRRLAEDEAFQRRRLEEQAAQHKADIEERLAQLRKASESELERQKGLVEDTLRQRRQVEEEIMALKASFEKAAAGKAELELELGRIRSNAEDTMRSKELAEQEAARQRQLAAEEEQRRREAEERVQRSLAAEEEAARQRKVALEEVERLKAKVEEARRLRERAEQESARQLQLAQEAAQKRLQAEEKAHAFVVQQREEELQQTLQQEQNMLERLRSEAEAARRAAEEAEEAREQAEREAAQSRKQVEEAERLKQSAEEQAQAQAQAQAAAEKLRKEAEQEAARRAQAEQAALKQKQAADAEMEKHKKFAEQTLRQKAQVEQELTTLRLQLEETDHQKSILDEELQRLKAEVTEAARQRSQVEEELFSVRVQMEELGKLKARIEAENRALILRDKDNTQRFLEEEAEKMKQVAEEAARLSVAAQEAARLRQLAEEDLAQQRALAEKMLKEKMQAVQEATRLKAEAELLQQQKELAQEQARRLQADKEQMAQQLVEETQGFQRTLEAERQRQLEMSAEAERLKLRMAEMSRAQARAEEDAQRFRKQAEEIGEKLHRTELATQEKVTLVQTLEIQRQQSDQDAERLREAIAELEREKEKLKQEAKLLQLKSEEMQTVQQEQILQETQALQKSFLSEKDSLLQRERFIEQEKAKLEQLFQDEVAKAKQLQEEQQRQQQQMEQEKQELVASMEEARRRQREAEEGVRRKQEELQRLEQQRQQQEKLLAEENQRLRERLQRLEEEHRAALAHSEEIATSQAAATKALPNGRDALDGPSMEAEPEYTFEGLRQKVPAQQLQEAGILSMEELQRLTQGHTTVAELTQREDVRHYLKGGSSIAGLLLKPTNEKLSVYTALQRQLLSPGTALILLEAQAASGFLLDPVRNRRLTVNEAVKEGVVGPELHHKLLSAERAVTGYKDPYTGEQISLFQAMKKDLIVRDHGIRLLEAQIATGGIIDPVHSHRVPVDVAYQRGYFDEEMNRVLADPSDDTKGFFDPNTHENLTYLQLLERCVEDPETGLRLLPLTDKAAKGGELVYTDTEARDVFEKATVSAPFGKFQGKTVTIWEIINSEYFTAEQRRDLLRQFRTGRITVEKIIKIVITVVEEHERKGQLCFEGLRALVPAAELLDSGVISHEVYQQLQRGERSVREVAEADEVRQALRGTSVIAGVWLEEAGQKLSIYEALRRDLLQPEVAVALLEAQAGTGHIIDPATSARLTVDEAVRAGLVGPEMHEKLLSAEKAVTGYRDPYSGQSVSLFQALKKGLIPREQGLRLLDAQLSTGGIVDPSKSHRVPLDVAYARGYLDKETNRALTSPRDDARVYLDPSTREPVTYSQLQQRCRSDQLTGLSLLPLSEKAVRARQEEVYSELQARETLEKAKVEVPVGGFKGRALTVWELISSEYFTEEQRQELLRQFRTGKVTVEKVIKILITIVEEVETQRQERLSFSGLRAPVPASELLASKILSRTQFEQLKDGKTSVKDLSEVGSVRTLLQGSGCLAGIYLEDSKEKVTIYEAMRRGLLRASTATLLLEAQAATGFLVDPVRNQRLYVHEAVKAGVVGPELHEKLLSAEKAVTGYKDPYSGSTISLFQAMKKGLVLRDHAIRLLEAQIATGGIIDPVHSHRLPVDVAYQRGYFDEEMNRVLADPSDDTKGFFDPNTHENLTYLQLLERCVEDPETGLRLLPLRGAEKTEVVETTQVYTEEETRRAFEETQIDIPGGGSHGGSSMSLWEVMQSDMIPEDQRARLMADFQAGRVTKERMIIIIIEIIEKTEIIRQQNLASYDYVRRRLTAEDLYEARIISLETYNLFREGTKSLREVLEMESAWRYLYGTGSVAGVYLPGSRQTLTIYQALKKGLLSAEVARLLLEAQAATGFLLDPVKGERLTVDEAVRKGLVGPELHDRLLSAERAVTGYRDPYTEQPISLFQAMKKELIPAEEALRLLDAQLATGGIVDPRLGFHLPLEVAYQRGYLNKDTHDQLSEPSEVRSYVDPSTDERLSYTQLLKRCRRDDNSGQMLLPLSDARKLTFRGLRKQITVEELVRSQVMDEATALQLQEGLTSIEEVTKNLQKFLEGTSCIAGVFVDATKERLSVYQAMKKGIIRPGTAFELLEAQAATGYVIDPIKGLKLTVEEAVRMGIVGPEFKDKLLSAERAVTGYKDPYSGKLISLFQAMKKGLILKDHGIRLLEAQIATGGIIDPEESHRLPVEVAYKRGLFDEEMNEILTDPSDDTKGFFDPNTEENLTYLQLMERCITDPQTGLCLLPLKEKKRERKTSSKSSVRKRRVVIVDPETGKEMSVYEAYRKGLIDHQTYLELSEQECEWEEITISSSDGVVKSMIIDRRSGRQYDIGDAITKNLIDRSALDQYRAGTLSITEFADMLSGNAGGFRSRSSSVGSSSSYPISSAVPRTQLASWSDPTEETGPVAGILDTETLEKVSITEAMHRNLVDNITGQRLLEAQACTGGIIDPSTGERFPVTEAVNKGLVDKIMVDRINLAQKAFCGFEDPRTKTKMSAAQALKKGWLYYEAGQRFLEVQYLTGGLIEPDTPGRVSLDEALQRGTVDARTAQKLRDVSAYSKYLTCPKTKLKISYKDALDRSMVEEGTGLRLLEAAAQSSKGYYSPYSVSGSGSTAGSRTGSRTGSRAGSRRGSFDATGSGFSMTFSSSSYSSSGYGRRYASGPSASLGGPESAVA

What was measured:
[1] = biological target: full-length plectin purified from an epithelial (804G) cell line (not stated (endogenous in 804G cells)) (UniProt P30427); assay: negative-staining electron microscopy; full-length plectin purified from 804G cells; data not shown; both purified
[2] = biological target: native full-length plectin purified from rat glioma C6 cells (rat (endogenous in glioma C6 cells)) (UniProt P30427); assay: negative-staining electron microscopy; plectin in 7 M urea dialysed into 2 mM Tris-HCl, pH 8.0, 5 mM beta-mercaptoethanol, 3 mM PMSF at 4°C overnight, then 10 mM CaCl2 at 37°C for 1 hour; both purified

| Substance | binding [1] | binding [2] |
| --- | --- | --- |
| full-length plectin purified from an epithelial (804G) cell line (from UniProt P30427 1-4687) | binds |  |
| native full-length plectin purified from rat glioma C6 cells (from UniProt P30427 1-4687) |  | binds |
